This is one part of the list. Residues, ends and D or L forms follow the SMILES beside them. *: point of attachment. Cbz = O=C(OCc1ccccc1)*
Legend:
Test in all cases: log2 fold change, soluble protein after heating vs DMSO (PISA); higher = thermal stabilisation; K562 cells, 10 uM, 30 min; active = over 0.2 and 3.5 SD of the protein, either way, in both replicates (recomputed)
erlotinib = compound: C#Cc1cccc(Nc2ncnc3cc(OCCOC)c(OCCOC)cc23)c1 [erlotinib]
Summary of the method: (§1)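 Values are thermal stability changes relative to control samples and are taken from duplicates. They are stated as log2 fold changes. Before quantification by TMTpro 16plex LC-MS/MS with equalised channel sums, K562 cells at 2×10^6 cells/mL were treated with 10 μM compound for 30 min, heated in aliquots for 3 min across 48°C-58°C, pooled, extracted in PBS with 0.5% NP-40 at 4°C, and centrifuged at 21,000xg for 90 min to give the soluble supernatant.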

Sequences of proteins named here, by UniProt entry; tags and fusion partners are left off. A change or cut given only in a name is not applied to a line headed by its entry.
UniProt Q8IUG5: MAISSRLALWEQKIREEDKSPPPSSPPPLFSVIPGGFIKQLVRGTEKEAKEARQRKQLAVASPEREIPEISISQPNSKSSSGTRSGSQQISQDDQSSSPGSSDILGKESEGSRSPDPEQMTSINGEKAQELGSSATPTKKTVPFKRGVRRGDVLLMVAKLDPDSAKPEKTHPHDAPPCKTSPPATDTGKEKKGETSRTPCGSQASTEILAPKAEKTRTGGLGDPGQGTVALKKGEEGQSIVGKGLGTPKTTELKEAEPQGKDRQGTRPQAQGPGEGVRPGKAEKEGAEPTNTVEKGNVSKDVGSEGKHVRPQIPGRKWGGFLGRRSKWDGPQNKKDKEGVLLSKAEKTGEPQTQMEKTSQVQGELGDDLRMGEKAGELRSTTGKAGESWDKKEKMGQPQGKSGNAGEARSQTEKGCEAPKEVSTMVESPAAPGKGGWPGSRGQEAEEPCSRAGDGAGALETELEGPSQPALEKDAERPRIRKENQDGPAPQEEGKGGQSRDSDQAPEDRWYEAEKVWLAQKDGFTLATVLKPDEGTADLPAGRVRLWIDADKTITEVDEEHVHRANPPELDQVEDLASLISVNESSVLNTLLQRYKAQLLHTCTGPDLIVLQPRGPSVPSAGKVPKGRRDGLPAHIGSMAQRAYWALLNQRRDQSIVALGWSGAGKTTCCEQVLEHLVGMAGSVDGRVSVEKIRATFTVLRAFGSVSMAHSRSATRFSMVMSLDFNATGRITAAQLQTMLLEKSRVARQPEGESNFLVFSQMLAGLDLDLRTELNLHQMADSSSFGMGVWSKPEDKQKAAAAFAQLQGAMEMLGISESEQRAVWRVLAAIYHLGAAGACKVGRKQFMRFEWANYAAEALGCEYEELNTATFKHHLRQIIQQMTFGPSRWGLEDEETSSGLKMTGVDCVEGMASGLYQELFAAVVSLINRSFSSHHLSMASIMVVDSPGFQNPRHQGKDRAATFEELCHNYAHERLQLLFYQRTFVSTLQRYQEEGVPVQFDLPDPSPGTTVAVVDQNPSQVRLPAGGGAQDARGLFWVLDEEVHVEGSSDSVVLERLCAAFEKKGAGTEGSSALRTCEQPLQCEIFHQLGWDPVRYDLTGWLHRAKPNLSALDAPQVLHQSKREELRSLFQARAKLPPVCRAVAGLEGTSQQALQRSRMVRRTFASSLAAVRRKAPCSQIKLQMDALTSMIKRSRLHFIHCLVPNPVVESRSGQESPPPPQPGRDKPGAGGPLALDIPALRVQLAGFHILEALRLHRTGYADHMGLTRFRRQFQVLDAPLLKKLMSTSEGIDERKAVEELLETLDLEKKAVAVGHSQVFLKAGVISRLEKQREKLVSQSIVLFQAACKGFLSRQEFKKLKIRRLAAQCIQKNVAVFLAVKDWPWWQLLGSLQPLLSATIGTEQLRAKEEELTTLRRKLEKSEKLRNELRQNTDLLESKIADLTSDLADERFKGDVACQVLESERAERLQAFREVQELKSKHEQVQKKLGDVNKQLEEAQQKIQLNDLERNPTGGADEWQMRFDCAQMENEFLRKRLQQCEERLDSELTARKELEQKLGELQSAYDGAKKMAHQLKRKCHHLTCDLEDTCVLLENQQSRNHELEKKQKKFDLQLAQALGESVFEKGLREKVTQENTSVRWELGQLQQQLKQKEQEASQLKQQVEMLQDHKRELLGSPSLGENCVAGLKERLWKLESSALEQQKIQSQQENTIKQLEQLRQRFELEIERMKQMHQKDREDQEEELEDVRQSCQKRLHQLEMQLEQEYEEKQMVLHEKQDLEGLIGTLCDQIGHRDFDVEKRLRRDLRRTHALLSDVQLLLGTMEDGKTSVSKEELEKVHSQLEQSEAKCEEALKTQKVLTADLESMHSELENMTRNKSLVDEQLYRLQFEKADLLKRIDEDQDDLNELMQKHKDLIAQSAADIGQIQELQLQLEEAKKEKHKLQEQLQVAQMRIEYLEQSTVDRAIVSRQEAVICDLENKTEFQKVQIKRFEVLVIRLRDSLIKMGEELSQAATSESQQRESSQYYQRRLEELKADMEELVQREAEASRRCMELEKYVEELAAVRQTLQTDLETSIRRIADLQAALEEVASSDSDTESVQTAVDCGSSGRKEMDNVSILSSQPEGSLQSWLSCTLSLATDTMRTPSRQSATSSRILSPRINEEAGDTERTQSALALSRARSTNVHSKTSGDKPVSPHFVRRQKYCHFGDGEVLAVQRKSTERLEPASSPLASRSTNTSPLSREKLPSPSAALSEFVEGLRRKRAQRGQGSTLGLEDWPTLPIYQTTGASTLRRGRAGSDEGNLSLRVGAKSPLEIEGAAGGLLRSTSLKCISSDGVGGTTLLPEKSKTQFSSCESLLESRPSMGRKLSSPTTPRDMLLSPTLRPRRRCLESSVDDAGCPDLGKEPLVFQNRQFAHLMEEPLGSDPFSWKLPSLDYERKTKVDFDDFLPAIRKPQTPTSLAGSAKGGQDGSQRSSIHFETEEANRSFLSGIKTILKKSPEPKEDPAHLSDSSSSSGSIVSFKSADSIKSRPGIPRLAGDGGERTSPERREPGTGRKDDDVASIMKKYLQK
UniProt P49914: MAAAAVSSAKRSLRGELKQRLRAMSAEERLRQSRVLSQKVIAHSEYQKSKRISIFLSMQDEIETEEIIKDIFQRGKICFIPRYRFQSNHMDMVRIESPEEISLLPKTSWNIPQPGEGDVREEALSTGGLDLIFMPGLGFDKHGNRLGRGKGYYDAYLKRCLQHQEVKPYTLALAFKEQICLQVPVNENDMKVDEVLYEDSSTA
UniProt Q9H2K0, whole entry, looked up: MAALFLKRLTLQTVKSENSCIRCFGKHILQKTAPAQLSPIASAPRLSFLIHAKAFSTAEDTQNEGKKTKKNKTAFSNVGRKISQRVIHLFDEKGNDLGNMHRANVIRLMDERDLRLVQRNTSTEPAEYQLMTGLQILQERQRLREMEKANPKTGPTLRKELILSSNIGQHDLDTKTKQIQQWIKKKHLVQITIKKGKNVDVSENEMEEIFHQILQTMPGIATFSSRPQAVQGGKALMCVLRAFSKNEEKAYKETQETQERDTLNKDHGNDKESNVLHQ
UniProt P35749, whole entry, looked up: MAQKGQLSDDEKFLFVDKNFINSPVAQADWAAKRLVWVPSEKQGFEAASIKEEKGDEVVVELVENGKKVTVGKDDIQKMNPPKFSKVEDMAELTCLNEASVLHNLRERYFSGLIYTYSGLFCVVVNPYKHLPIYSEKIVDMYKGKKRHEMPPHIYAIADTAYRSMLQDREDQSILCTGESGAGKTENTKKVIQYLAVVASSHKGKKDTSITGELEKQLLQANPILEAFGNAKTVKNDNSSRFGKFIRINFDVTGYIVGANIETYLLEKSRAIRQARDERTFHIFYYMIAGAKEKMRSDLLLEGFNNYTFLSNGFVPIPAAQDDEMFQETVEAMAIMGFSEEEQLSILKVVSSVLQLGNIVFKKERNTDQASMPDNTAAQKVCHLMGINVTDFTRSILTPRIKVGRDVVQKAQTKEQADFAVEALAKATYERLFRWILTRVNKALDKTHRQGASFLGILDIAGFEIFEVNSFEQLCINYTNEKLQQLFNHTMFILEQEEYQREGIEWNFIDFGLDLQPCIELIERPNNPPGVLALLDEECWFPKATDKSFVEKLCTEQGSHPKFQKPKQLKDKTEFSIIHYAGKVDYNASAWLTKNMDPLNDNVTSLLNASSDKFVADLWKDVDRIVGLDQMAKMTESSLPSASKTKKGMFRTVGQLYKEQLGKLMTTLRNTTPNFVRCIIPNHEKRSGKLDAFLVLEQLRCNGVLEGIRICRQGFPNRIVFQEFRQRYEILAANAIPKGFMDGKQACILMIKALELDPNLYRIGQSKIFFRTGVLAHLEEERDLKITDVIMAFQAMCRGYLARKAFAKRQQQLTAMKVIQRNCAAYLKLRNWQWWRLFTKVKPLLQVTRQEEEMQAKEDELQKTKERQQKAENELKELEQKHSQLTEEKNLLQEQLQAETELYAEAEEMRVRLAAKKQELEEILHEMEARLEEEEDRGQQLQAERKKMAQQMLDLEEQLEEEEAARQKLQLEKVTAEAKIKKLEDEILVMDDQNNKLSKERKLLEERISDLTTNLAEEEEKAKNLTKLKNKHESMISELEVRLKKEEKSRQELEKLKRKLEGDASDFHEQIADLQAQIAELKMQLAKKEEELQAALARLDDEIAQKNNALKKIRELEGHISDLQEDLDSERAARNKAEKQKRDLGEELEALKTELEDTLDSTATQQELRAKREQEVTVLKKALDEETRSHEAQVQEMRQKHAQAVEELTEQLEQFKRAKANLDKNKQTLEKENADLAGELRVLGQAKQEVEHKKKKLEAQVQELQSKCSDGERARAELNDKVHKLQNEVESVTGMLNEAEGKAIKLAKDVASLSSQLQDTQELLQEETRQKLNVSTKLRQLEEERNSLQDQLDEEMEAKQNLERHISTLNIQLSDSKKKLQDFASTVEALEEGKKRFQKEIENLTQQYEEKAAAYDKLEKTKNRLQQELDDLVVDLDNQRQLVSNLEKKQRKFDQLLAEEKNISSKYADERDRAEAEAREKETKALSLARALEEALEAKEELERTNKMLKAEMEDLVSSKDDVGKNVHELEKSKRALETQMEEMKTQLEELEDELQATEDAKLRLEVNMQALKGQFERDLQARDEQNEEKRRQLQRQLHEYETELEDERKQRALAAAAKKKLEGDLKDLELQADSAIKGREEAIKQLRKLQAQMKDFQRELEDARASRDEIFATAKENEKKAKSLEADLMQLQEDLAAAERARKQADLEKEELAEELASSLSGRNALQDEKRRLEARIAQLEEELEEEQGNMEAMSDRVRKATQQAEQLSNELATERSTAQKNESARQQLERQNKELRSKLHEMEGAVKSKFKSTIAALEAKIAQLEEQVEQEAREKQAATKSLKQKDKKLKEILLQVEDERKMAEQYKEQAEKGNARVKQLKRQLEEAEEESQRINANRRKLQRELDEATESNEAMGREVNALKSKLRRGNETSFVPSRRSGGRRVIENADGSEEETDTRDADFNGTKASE
UniProt P03928: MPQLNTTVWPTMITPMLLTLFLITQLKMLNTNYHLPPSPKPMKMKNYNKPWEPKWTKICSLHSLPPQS

[1] = compound: C/C(=N\NC(=O)C1=CC(=CC=C1)S(=O)(=O)N2CCOCC2)/C3=C(C=CC(=C3)Cl)O
Summary of the method: as §1

[2] = compound: C1=CC(=C(C=C1Cl)C2=NC3=NC=CN=C3C(=N2)NC4=CC=NC=C4)F
Summary of the method: as §1

[3] = compound: C1=CC(=CC=C1C2=NC3=C(N2)C=C(C=C3)C(=O)N)OC4=CC=C(C=C4)Cl
Summary of the method: as §1

[4] = compound: C1=CC2=C(C=CC(=C2)/C=C\3/C(=O)NC(=NCC4=CC=CS4)S3)N=C1
Summary of the method: as §1

[5] = compound: C1=CC2=NC=CN=C2C=C1/C=C/3\C(=O)NC(=O)S3
Summary of the method: as §1

[6] = compound: C1=CC=C(C=C1)C2=NC(=C(N2)C3=CC=NC=C3)C4=CC(=C(C=C4)Cl)O
Summary of the method: as §1

[7] = compound: C1=CC=C2C(=C1)C3=NNC4=CC=CC(=C43)C2=O
Summary of the method: as §1

[8] = compound: C1CCN(C1)C(=O)NC2=CC=CC(=C2)NC3=NC=C(C(=N3)NCCC4=CN=CN4)Br
Summary of the method: as §1

[9] = compound: C1CN(CCC1(CC2=CC=C(C=C2)Cl)N)C3=NC=NC4=C3C=CN4
Summary of the method: as §1

IRAK-1-4 Inhibitor I = compound: C1COCCN1CCN2C3=CC=CC=C3N=C2NC(=O)C4=CC(=CC=C4)[N+](=O)[O-] [IRAK-1-4 Inhibitor I]
Summary of the method: as §1

ibrutinib = compound: C=CC(=O)N1CCC[C@@H](n2nc(-c3ccc(Oc4ccccc4)cc3)c3c(N)ncnc32)C1 [ibrutinib]
Summary of the method: as §1

[10] = compound: CC(=O)c1cnc2ccc(-c3cc(Cl)c(O)c(Cl)c3)nc2c1N[C@H]1CC[C@H](CN(C)C)CC1
Summary of the method: as §1

ralimetinib = compound: CC(C)(C)Cn1c(N)nc2ccc(-c3[nH]c(C(C)(C)C)nc3-c3ccc(F)cc3)nc21 [ralimetinib]
Summary of the method: as §1

[11] = compound: CC(C)(O)CC(=O)NCCn1ccc2ncnc(Nc3ccc(Oc4cccc(C(F)(F)F)c4)c(Cl)c3)c21
Summary of the method: as §1

[12] = compound: CC(C)C1=C2N=C(C=C(N2N=C1)NCC3=CC=CC=C3)NCCCCCCN
Summary of the method: as §1

[13] = compound: CC(C)C[C@@H](C=O)NC(=O)[C@H](CC(C)C)NC(=O)[C@H](CC(C)C)NC(=O)OCc1ccccc1
Summary of the method: as §1

pinometostat = compound: CC(C)N(C[C@H]1O[C@@H](n2cnc3c(N)ncnc32)[C@H](O)[C@@H]1O)[C@H]1C[C@@H](CCc2nc3cc(C(C)(C)C)ccc3[nH]2)C1 [pinometostat]
Summary of the method: as §1

[14] = compound: CC1=C(C2=C(C=C1)C(=O)C3=CC=CC=C3N2CCCN)C
Summary of the method: as §1

[15] = compound: CC1=C(C(CC(=O)N1)C2=CC=C(C=C2)C(F)(F)F)C(=O)NC3=C(C=C4C(=C3)C=NN4)F
Summary of the method: as §1

Measured: log2 fold change

MRPS31 (UniProt Q92665)
inactive: erlotinib 0.003 | [1] 0.001 | [2] -0.032 | [3] 0.105 | [4] -0.004 | [5] 0.023 | [6] 0.048 | [7] 0.064 | [8] 0.003 | [9] -0.066 | IRAK-1-4 Inhibitor I -0.057 | ibrutinib 0.014 | [10] -0.073 | ralimetinib -0.005 | [11] -0.032 | [12] -0.086 | [13] 0.057 | pinometostat 0.034 | [14] -0.14

MYO18B isoform 3 (UniProt Q8IUG5)
inactive: erlotinib 0.198 | [1] -0.297 | [2] -0.346 | [3] -0.288 | [4] 0.283 | [5] -0.028 | [6] -0.299 | [7] -0.107 | [8] 0.205 | [9] -0.273 | ibrutinib -0.107 | [10] -0.08 | ralimetinib 0.044 | [11] 0.127 | [12] -0.414 | [13] 0.402 | [15] 0.052 | [14] 0.002

MRPS2 (UniProt Q9Y399)
inactive: erlotinib 0.004 | [1] -0.064 | [2] -0.083 | [3] 0.052 | [4] 0.093 | [5] 0.01 | [6] 0.083 | [7] -0.033 | [8] -0.01 | [9] -0.112 | IRAK-1-4 Inhibitor I -0.043 | ibrutinib 0.109 | [10] -0.011 | ralimetinib -0.02 | [11] -0.035 | [12] -0.03 | [13] 0.08 | pinometostat 0.002 | [14] -0.079

Two consecutive entries from above, for reference:
MRPS31 (UniProt Q92665)
inactive: erlotinib 0.003 | [1] 0.001 | [2] -0.032 | [3] 0.105 | [4] -0.004 | [5] 0.023 | [6] 0.048 | [7] 0.064 | [8] 0.003 | [9] -0.066 | IRAK-1-4 Inhibitor I -0.057 | ibrutinib 0.014 | [10] -0.073 | ralimetinib -0.005 | [11] -0.032 | [12] -0.086 | [13] 0.057 | pinometostat 0.034 | [14] -0.14

MYO18B isoform 3 (UniProt Q8IUG5)
inactive: erlotinib 0.198 | [1] -0.297 | [2] -0.346 | [3] -0.288 | [4] 0.283 | [5] -0.028 | [6] -0.299 | [7] -0.107 | [8] 0.205 | [9] -0.273 | ibrutinib -0.107 | [10] -0.08 | ralimetinib 0.044 | [11] 0.127 | [12] -0.414 | [13] 0.402 | [15] 0.052 | [14] 0.002

Further entries:

MRPS21 (UniProt P82921)
inactive: erlotinib 0.014 | [1] -0.04 | [2] -0.096 | [3] 0.042 | [4] -0.241 | [5] -0.138 | [6] -0.019 | [7] 0.297 | [8] -0.091 | [9] -0.07 | IRAK-1-4 Inhibitor I -0.143 | ibrutinib 0.029 | [10] 0.172 | ralimetinib -0.038 | [11] -0.069 | [12] 0.063 | [13] 0.063 | pinometostat 0.052 | [14] -0.207

MRPS10 (UniProt P82664)
inactive: erlotinib -0.036 | [1] -0.089 | [2] -0.103 | [3] 0.048 | [4] 0.102 | [5] 0.023 | [6] -0.037 | [7] 0.04 | [8] 0.001 | [9] -0.012 | IRAK-1-4 Inhibitor I -0.024 | ibrutinib 0.02 | [10] -0.065 | ralimetinib -0.031 | [11] 0.01 | [12] -0.027 | [13] 0.066 | pinometostat 0.045 | [14] -0.28

MTCH2 (UniProt E9PIE4)
inactive: erlotinib -0.042 | [1] 0.061 | [2] 0.146 | [3] 0.059 | [4] 0.049 | [5] 0.086 | [7] -0.024 | IRAK-1-4 Inhibitor I -0.022 | ibrutinib 0.056 | [10] 0.109 | [11] -0.001 | [12] 0.01 | pinometostat -0.146 | [15] 0.079

MTHFS (UniProt P49914)
inactive: erlotinib 0.01 | [1] 0.062 | [2] 0.055 | [3] -0.003 | [4] 0.034 | [5] -0.024 | [6] 0.026 | [7] 0.083 | [8] -0.014 | [9] -0.12 | IRAK-1-4 Inhibitor I -0.003 | ibrutinib -0.01 | [10] -0.009 | ralimetinib -0.09 | [11] -0.095 | [12] -0.009 | [13] 0.007 | pinometostat -0.03 | [14] 0.031

MTIF3 (UniProt Q9H2K0)
inactive: erlotinib -0.002 | [1] -0.161 | [2] -0.076 | [3] 0.157 | [4] -0.028 | [5] 0.031 | [7] -0.041 | ibrutinib 0.113 | [10] 0.047 | [11] -0.046 | [12] -0.057 | [15] -0.021

MYH11 isoform 2 (UniProt P35749)
inactive: erlotinib 0.046 | [1] -0.081 | [2] 0.096 | [3] 0.02 | [4] 0.032 | [5] 0.018 | [6] -0.026 | [7] 0.036 | [8] -0.046 | [9] 0.028 | IRAK-1-4 Inhibitor I 0.035 | ibrutinib -0.013 | [10] 0.028 | ralimetinib -0.016 | [11] -0.107 | [12] 0.056 | [13] -0.002 | pinometostat -0.042 | [14] -0.024

MT-ATP8 (UniProt P03928)
inactive: erlotinib -0.057 | [1] 0.062 | [2] 0.125 | [3] 0.149 | [4] 0.185 | [5] 0.029 | [7] -0.02 | [8] 0.112 | [9] 0.012 | IRAK-1-4 Inhibitor I 0.016 | ibrutinib 0 | [10] 0.012 | [11] -0.062 | [12] 0.115 | pinometostat -0.006 | [15] 0.044 | [14] -0.029
